Experimental data taken from the supplement of paper PMC10849652.
The list shows a part of the results.

By UniProt entry, the sequences of proteins in these tests, tags left out. Where a name states a change or a piece, a line headed by the entry shows the natural chain unless it says otherwise.
UniProt Q96SI1: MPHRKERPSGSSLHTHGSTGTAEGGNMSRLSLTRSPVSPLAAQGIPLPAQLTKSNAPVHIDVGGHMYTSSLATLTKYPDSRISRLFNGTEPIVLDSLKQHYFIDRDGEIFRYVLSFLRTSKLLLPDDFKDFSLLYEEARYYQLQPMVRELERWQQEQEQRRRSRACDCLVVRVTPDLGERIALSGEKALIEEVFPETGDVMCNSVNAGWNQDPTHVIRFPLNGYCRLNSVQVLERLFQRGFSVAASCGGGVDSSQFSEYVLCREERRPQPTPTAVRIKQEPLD
UniProt Q9H1K1: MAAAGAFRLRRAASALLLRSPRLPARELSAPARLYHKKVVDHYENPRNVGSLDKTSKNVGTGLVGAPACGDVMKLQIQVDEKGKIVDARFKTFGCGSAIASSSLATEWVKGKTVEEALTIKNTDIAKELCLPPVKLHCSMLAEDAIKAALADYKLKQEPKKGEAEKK
UniProt O94829: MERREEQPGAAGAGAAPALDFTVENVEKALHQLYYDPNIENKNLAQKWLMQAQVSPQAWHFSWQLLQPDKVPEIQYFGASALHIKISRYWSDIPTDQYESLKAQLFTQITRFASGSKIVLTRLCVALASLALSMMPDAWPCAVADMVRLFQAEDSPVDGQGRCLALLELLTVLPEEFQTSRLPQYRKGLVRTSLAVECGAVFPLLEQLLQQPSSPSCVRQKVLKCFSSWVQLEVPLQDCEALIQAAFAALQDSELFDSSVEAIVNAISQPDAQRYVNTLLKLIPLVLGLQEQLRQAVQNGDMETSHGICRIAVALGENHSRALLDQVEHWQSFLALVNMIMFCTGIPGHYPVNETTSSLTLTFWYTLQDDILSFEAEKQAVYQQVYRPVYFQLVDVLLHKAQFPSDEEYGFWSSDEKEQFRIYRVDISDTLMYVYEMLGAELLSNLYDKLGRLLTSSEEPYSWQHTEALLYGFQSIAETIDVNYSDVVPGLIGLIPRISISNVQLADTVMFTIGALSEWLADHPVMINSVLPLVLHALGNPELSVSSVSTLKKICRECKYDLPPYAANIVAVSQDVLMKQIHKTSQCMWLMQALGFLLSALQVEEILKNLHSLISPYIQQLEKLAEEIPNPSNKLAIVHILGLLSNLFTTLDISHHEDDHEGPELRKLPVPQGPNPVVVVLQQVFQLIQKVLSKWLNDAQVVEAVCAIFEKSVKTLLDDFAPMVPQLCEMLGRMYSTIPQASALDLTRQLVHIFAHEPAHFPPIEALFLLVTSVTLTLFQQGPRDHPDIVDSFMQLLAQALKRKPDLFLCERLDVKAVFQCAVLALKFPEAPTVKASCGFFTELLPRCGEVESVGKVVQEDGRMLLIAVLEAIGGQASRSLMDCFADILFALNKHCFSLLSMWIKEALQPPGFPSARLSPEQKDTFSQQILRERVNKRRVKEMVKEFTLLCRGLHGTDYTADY
UniProt Q96CN7: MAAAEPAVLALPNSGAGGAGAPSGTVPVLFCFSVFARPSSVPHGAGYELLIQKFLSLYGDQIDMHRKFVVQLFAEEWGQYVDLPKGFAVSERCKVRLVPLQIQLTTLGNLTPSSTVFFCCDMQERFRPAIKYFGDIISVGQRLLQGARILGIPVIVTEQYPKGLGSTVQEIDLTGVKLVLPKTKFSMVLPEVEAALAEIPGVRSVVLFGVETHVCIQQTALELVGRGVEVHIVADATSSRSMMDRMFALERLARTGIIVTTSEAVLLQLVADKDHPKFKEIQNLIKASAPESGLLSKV
UniProt Q8WZA9: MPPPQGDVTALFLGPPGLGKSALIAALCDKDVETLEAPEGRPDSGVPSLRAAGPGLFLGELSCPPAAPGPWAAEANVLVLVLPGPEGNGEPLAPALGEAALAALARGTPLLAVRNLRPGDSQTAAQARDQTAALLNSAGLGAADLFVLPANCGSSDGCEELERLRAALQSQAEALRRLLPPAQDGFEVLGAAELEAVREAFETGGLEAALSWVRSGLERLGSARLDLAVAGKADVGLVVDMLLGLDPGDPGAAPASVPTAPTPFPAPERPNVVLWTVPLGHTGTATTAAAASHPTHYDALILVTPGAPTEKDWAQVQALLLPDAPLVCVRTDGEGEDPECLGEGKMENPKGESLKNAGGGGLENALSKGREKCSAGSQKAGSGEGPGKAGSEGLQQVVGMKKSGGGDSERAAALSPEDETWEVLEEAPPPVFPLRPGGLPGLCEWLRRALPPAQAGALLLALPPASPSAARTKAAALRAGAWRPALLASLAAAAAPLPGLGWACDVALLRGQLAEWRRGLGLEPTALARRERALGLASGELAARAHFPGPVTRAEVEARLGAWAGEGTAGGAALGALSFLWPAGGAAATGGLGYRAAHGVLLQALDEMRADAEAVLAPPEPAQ
UniProt P51617, whole entry, looked up: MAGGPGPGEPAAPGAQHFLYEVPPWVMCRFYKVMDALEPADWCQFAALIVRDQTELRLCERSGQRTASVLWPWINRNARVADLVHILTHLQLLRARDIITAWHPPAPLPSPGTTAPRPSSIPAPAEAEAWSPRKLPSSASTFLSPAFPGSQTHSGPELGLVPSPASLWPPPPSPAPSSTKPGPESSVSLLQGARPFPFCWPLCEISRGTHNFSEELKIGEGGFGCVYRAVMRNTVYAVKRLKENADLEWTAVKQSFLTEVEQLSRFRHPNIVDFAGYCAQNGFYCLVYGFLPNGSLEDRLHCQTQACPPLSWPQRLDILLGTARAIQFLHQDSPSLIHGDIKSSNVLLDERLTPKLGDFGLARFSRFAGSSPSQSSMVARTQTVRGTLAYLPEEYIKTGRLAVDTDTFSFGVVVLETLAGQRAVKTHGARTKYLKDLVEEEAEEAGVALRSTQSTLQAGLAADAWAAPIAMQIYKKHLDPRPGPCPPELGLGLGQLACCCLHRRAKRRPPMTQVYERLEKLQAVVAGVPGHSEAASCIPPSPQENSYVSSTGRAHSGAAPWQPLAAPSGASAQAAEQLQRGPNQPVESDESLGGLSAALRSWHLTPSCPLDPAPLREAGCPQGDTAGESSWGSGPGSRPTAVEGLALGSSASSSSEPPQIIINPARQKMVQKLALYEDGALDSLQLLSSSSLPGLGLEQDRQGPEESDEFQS
UniProt Q9P2N6: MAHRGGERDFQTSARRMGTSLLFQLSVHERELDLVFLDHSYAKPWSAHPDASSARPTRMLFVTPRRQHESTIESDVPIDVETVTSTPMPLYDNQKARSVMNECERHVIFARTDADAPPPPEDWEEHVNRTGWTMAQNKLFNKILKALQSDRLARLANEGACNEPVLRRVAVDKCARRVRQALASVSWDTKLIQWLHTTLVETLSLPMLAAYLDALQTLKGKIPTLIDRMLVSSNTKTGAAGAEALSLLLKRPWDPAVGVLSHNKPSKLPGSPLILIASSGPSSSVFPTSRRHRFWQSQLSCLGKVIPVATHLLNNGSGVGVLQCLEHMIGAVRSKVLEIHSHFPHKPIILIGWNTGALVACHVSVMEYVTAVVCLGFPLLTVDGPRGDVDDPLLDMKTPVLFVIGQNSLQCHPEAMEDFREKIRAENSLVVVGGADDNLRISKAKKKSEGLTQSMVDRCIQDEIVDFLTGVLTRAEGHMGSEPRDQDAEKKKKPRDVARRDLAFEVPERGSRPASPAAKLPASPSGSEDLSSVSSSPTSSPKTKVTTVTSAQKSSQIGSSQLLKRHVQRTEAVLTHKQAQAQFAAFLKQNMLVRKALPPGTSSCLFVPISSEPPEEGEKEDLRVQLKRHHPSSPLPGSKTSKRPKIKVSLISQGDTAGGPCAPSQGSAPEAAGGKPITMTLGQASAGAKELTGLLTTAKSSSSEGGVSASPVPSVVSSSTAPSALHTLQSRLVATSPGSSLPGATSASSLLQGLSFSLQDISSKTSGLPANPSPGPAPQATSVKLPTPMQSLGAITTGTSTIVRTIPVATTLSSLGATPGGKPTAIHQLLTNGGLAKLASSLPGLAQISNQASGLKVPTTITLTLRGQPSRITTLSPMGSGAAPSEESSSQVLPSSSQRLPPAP
UniProt P17535: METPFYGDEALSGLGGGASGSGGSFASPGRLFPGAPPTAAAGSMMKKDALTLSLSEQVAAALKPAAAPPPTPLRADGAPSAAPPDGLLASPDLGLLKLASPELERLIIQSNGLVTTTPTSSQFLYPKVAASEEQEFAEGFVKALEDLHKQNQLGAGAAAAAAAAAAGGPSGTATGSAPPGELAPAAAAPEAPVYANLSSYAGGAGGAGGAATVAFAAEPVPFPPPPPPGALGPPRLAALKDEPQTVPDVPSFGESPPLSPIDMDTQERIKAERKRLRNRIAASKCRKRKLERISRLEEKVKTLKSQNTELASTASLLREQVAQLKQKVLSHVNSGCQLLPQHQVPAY
UniProt O95251, whole entry, looked up: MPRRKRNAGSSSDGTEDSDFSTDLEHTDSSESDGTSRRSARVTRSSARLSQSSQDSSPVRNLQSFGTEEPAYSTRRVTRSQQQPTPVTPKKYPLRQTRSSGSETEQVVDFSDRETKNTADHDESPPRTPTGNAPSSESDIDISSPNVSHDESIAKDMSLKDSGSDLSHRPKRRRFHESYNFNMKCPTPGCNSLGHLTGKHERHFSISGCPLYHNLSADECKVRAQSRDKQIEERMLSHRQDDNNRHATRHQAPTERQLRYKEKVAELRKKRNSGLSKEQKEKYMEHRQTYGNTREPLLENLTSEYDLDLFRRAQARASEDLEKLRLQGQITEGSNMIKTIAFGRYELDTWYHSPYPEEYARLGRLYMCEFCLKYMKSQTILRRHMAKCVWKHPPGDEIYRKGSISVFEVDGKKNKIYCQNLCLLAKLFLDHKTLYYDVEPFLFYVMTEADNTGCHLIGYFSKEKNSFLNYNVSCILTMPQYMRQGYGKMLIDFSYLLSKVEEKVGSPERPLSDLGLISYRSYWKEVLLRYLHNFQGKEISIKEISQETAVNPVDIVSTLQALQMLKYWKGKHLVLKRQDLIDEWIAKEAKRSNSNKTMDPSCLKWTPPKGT
UniProt Q13576: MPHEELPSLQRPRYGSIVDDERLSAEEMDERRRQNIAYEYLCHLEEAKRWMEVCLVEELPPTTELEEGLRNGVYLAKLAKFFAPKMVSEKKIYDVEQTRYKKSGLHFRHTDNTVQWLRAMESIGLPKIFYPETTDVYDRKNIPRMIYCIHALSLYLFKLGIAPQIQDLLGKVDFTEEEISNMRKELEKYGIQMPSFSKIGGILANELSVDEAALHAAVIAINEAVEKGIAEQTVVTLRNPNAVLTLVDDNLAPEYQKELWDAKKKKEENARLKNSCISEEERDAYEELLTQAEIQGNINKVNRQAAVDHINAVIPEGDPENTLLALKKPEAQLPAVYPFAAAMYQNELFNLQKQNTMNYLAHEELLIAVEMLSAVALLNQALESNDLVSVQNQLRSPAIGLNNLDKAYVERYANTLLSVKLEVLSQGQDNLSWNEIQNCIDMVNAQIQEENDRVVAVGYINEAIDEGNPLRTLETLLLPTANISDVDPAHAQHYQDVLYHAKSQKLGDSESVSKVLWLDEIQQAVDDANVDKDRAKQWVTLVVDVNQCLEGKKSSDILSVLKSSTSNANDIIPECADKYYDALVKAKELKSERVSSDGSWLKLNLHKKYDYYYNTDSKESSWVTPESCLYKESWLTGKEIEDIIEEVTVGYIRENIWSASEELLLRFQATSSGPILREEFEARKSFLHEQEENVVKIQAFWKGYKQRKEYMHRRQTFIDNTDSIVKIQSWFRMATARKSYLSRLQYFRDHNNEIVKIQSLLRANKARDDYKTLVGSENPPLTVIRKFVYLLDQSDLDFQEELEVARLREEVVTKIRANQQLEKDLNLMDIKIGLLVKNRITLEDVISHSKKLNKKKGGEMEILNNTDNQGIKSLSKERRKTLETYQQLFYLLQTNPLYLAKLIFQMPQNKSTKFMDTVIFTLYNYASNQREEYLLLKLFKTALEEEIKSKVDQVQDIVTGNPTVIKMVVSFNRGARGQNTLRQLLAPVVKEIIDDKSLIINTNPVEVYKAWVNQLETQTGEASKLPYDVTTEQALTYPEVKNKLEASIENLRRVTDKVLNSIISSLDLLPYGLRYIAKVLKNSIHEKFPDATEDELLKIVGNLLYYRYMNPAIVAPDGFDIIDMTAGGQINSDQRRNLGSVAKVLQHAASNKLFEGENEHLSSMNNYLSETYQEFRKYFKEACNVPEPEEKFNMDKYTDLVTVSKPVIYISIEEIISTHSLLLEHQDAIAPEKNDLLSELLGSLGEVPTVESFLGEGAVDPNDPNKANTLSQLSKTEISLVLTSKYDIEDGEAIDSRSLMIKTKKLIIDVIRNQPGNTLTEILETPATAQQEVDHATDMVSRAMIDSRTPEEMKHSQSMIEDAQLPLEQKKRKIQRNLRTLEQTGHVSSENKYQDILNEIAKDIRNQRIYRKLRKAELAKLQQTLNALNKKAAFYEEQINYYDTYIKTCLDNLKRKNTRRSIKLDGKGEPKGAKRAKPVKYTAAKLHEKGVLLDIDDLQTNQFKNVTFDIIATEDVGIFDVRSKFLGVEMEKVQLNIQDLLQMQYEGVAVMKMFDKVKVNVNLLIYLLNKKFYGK

How the values were obtained:
Assay in all cases: log2 fold change, soluble protein after heating vs DMSO (PISA); higher = thermal stabilisation; K562 lysate, 10 uM; active = over 0.2 and 3.5 SD of the protein, either way, in both replicates (recomputed)
lapatinib = compound: CS(=O)(=O)CCNCc1ccc(-c2ccc3ncnc(Nc4ccc(OCc5cccc(F)c5)c(Cl)c4)c3c2)o1 [lapatinib]
In short: (§1)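 To prepare the extract, K562 pellets were dounce-homogenised in PBS pH 7.4 with 1 mM MgCl2, giving crude material at 1 mg/mL protein. This was treated with 10 μM compound for 30 min, then heated in aliquots for 3 min over 48°C-58°C before pooling and addition of NP-40 to 0.5% at 4°C. Centrifugation at 21,000xg for 90 min left soluble protein in the supernatant, which TMTpro 16plex LC-MS/MS quantified with equalised channel sums. Results are log-two fold changes in thermal stability compared with solvent controls, from duplicates.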

pictilisib = compound: CS(=O)(=O)N1CCN(Cc2cc3nc(-c4cccc5[nH]ncc45)nc(N4CCOCC4)c3s2)CC1 [pictilisib]
In short: as §1

crizotinib = compound: C[C@@H](Oc1cc(-c2cnn(C3CCNCC3)c2)cnc1N)c1c(Cl)ccc(F)c1Cl [crizotinib]
In short: as §1

[1] = compound: C[C@H](C1=CC=C(C=C1)C(=O)NC2=C3C=CNC3=NC=C2)N
In short: as §1

duvelisib = compound: C[C@H](Nc1ncnc2nc[nH]c12)c1cc2cccc(Cl)c2c(=O)n1-c1ccccc1 [duvelisib]
In short: as §1

gandotinib = compound: Cc1cc(Nc2cc(CN3CCOCC3)c3nc(C)c(Cc4ccc(Cl)cc4F)n3n2)n[nH]1 [gandotinib]
In short: as §1

tozasertib = compound: Cc1cc(Nc2cc(N3CCN(C)CC3)nc(Sc3ccc(NC(=O)C4CC4)cc3)n2)n[nH]1 [tozasertib]
In short: as §1

doramapimod = compound: Cc1ccc(-n2nc(C(C)(C)C)cc2NC(=O)Nc2ccc(OCCN3CCOCC3)c3ccccc23)cc1 [doramapimod]
In short: as §1

bafetinib = compound: Cc1ccc(NC(=O)c2ccc(CN3CC[C@H](N(C)C)C3)c(C(F)(F)F)c2)cc1Nc1nccc(-c2cncnc2)n1 [bafetinib]
In short: as §1

[2] = compound: Cc1cccc(CC(=O)N2CCc3c2ccc(-c2cn(C)c4ncnc(N)c24)c3F)n1
In short: as §1

nilotinib = compound: Cc1cn(-c2cc(NC(=O)c3ccc(C)c(Nc4nccc(-c5cccnc5)n4)c3)cc(C(F)(F)F)c2)cn1 [nilotinib]
In short: as §1

[3] = compound: Cc1nc(Nc2n[nH]c3c2CN(C(=O)N[C@H](CN(C)C)c2ccccc2)C3(C)C)c2sccc2n1
In short: as §1

dasatinib = compound: Cc1nc(Nc2ncc(C(=O)Nc3c(C)cccc3Cl)s2)cc(N2CCN(CCO)CC2)n1 [dasatinib]
In short: as §1

[4] = compound: Cc1ncc(-c2ccnc(Nc3ccc(S(C)(=O)=O)cc3)n2)n1C(C)C
In short: as §1

[5] = compound: Cn1cc(-c2ccc3c(c2)CCN3C(=O)Cc2cccc(C(F)(F)F)c2)c2c(N)ncnc21
In short: as §1

quisinostat = compound: Cn1cc(CNCC2CCN(c3ncc(C(=O)NO)cn3)CC2)c2ccccc21 [quisinostat]
In short: as §1

tipifarnib = compound: Cn1cncc1[C@@](N)(c1ccc(Cl)cc1)c1ccc2c(c1)c(-c1cccc(Cl)c1)cc(=O)n2C [tipifarnib]
In short: as §1

[6] = compound: NC(=O)Nc1cc(-c2cccc(F)c2)sc1C(=O)N[C@H]1CCCNC1
In short: as §1

[7] = compound: NC(=O)c1cnc(N[C@@H]2CCCC[C@@H]2N)nc1Nc1cccc(-n2nccn2)c1
In short: as §1

[8] = compound: NC1(c2ccc(-c3nc4ccn5c(=O)[nH]nc5c4cc3-c3ccccc3)cc2)CCC1
In short: as §1

Row | Target | log2 fold change (lapatinib) | log2 fold change (pictilisib) | log2 fold change (crizotinib) | log2 fold change [1] | log2 fold change (duvelisib) | log2 fold change (gandotinib) | log2 fold change (tozasertib) | log2 fold change (doramapimod) | log2 fold change (bafetinib) | log2 fold change [2] | log2 fold change (nilotinib) | log2 fold change [3] | log2 fold change (dasatinib) | log2 fold change [4] | log2 fold change [5] | log2 fold change (quisinostat) | log2 fold change (tipifarnib) | log2 fold change [6] | log2 fold change [7] | log2 fold change [8]
1 | IQSEC1 (UniProt Q6DN90) | inactive: 0.117 | inactive: -0.001 | inactive: -0.011 | inactive: 0.098 | inactive: -0.025 | inactive: -0.049 | inactive: -0.015 | inactive: -0.016 | inactive: -0.051 | inactive: 0.053 | inactive: 0.146 | inactive: -0.115 | inactive: 0.04 | inactive: -0.176 | inactive: 0.051 | inactive: -0.063 | inactive: -0.142 | inactive: 0.057 | inactive: -0.067 | inactive: 0.001
2 | IRF3 (UniProt Q14653) | inactive: -0.029 | inactive: -0.045 | inactive: -0.023 | inactive: -0.001 | inactive: 0.012 | inactive: -0.034 | inactive: -0.004 | inactive: 0.004 | inactive: -0.018 | inactive: -0.016 | inactive: -0.008 | inactive: -0.034 | inactive: -0.017 | inactive: -0.003 | inactive: 0.012 | inactive: -0.029 | inactive: 0.002 | inactive: 0.006 | inactive: 0.011 | inactive: -0.033
3 | KCTD15 (UniProt Q96SI1) | inactive: 0.044 | inactive: -0.08 | inactive: 0.038 | inactive: 0.004 | inactive: 0.022 | inactive: 0.009 | inactive: -0.002 | inactive: -0.019 | inactive: -0.035 | inactive: -0.019 | inactive: 0.047 | inactive: 0.005 | inactive: 0.082 | inactive: -0.118 | inactive: 0.047 | inactive: 0.06 | inactive: 0.028 | inactive: 0.006 | inactive: -0.001 | inactive: 0.008
4 | ISCU (UniProt Q9H1K1) | inactive: 0.029 | inactive: -0.004 | inactive: 0.069 | inactive: 0.03 | inactive: -0.001 | inactive: 0 | inactive: 0.068 | inactive: -0.034 | inactive: 0.001 | inactive: -0.037 | inactive: -0.047 | inactive: 0.092 | inactive: 0.033 | inactive: 0.011 | inactive: 0.001 | inactive: 0.063 | inactive: 0.041 | inactive: 0.004 | inactive: 0.035 | inactive: 0.027
5 | IPO13 (UniProt O94829) | inactive: -0.022 | inactive: -0.035 | inactive: -0.022 | inactive: -0.015 | inactive: -0.041 | inactive: -0.083 | inactive: 0.002 | inactive: -0.013 | inactive: -0.069 | inactive: 0.023 | inactive: 0.019 | inactive: -0.05 | inactive: -0.074 | inactive: 0.029 | inactive: 0.04 | inactive: -0.018 | inactive: 0.021 | inactive: 0.052 | inactive: 0.001 | inactive: -0.002
6 | ISOC1 (UniProt Q96CN7) | inactive: -0.035 | inactive: 0.002 | inactive: -0.027 | inactive: -0.024 | inactive: 0.016 | inactive: 0.013 | inactive: -0.005 | inactive: -0.014 | inactive: 0.024 | inactive: 0.025 | inactive: 0.025 | inactive: -0.008 | inactive: 0.025 | inactive: -0.008 | inactive: -0.001 | inactive: 0.025 | inactive: 0.047 | inactive: 0.041 | inactive: -0.012 | inactive: 0.017
7 | IRGQ (UniProt Q8WZA9) | inactive: 0.002 | inactive: -0.029 | inactive: -0.003 | inactive: -0.016 | inactive: 0.003 | inactive: 0.022 | inactive: 0.014 | inactive: 0.021 | inactive: -0.002 | inactive: 0.029 | inactive: 0.019 | inactive: 0.05 | inactive: 0.035 | inactive: 0.053 | inactive: 0.01 | inactive: 0.009 | inactive: -0.01 | inactive: 0.011 | inactive: 0.005 | inactive: -0.018
8 | IRAK1 (UniProt P51617) | inactive: 0.023 | inactive: -0.008 | active: 0.799 | inactive: -0.111 | inactive: -0.169 | inactive: 0.26 | inactive: -0.116 | inactive: 0.172 | inactive: -0.036 | inactive: 0.168 | inactive: -0.036 | inactive: 0.011 | inactive: 0.051 | inactive: 0.112 | inactive: 0.131 | inactive: -0.145 | inactive: 0.016 | active: 0.373 | inactive: 0.005 | inactive: -0.005
9 | KANSL3 (UniProt Q9P2N6) | inactive: -0.459 | inactive: 0.003 | inactive: 0.045 | inactive: -0.026 | inactive: 0.026 | inactive: 0.065 | inactive: 0.041 | inactive: -0.013 | inactive: 0.019 | inactive: -0.012 | inactive: 0.177 | inactive: 0.068 | inactive: -0.143 | inactive: 0.018 | inactive: 0.242 | inactive: -0.049 | inactive: -0.023 | inactive: 0.008 | inactive: -0.087 | inactive: 0.071
10 | JUND (UniProt P17535) | inactive: 0.033 | inactive: -0.034 | inactive: -0.012 | inactive: -0.179 | inactive: -0.065 | inactive: 0.163 | inactive: -0.028 | inactive: 0.021 | inactive: 0.045 | inactive: 0.073 | inactive: -0.025 | inactive: 0.06 | inactive: 0.013 | inactive: 0.019 | inactive: 0.001 | inactive: -0.052 | inactive: -0.037 | inactive: -0.019 | inactive: 0.03 | inactive: 0.033
11 | ITFG2 (UniProt Q969R8) | inactive: 0.003 | inactive: -0.053 | inactive: 0.012 | inactive: -0.008 | inactive: 0.036 | inactive: 0.024 | inactive: 0.062 | inactive: 0.041 | inactive: -0.002 | inactive: 0.009 | inactive: -0.01 | inactive: -0.049 | inactive: -0.048 | inactive: -0.016 | inactive: -0.034 | inactive: 0.019 | inactive: 0.028 | inactive: 0.008 | inactive: 0.025 | inactive: 0.005
12 | KAT7 (UniProt O95251) | inactive: -0.039 | inactive: -0.038 | inactive: -0.072 | inactive: -0.176 | inactive: 0.017 | inactive: 0.185 | inactive: -0.007 | inactive: 0.046 | inactive: -0.027 | inactive: 0.139 | inactive: -0.01 | inactive: 0.001 | inactive: 0.016 | inactive: -0.115 | inactive: -0.064 | inactive: -0.096 | inactive: -0.074 | inactive: 0.051 | inactive: 0.053 | inactive: -0.055
13 | INTS6 (UniProt Q9UL03) | inactive: -0.174 | inactive: -0.053 | inactive: -0.008 | inactive: -0.02 | inactive: 0.106 | inactive: 0.128 | inactive: 0.172 | inactive: -0.026 | inactive: -0.008 | inactive: 0.077 | inactive: 0.142 | inactive: 0.033 | inactive: -0.07 | inactive: -0.132 | inactive: 0.027 | inactive: 0.003 | inactive: -0.066 | inactive: 0.03 | inactive: 0.076 | inactive: 0.058
14 | ITCH (UniProt Q96J02) | inactive: -0.021 | inactive: -0.018 | inactive: 0.03 | inactive: -0.055 | inactive: 0.005 | inactive: 0.007 | inactive: 0.041 | inactive: -0.044 | inactive: -0.022 | inactive: 0.034 | inactive: 0.028 | inactive: 0.017 | inactive: -0.058 | inactive: -0.012 | inactive: -0.011 | inactive: -0.052 | inactive: -0.006 | inactive: 0.05 | inactive: 0.007 | inactive: 0.038
15 | IQGAP2 (UniProt Q13576) | inactive: -0.022 | inactive: -0.015 | inactive: -0.088 | inactive: 0.003 | inactive: -0.008 | inactive: -0.107 | inactive: -0.028 | inactive: 0.009 | inactive: -0.038 | inactive: 0.011 | inactive: -0.006 | inactive: -0.009 | inactive: -0.049 | inactive: 0.013 | inactive: 0.029 | inactive: -0.063 | inactive: 0.019 | inactive: 0.065 | inactive: 0.018 | inactive: -0.029
16 | KATNAL1 (UniProt Q9BW62) | inactive: -0.053 | inactive: -0.108 | inactive: 0.038 | inactive: -0.094 | inactive: -0.067 | inactive: -0.079 | inactive: 0.124 | inactive: -0.05 | inactive: 0.073 | inactive: -0.146 | inactive: -0.101 | inactive: 0.065 | inactive: 0.092 | inactive: -0.18 | inactive: 0.057 | inactive: 0.083 | inactive: 0.069 | inactive: 0.072 | inactive: 0.04 | inactive: -0.036

Complete entries from above. Order of values: log2 fold change (lapatinib)	log2 fold change (pictilisib)	log2 fold change (crizotinib)	log2 fold change [1]	log2 fold change (duvelisib)	log2 fold change (gandotinib)	log2 fold change (tozasertib)	log2 fold change (doramapimod)	log2 fold change (bafetinib)	log2 fold change [2]	log2 fold change (nilotinib)	log2 fold change [3]	log2 fold change (dasatinib)	log2 fold change [4]	log2 fold change [5]	log2 fold change (quisinostat)	log2 fold change (tipifarnib)	log2 fold change [6]	log2 fold change [7]	log2 fold change [8]
IRAK1 (UniProt P51617) reads inactive: 0.023	inactive: -0.008	active: 0.799	inactive: -0.111	inactive: -0.169	inactive: 0.26	inactive: -0.116	inactive: 0.172	inactive: -0.036	inactive: 0.168	inactive: -0.036	inactive: 0.011	inactive: 0.051	inactive: 0.112	inactive: 0.131	inactive: -0.145	inactive: 0.016	active: 0.373	inactive: 0.005	inactive: -0.005
KATNAL1 (UniProt Q9BW62) reads inactive: -0.053	inactive: -0.108	inactive: 0.038	inactive: -0.094	inactive: -0.067	inactive: -0.079	inactive: 0.124	inactive: -0.05	inactive: 0.073	inactive: -0.146	inactive: -0.101	inactive: 0.065	inactive: 0.092	inactive: -0.18	inactive: 0.057	inactive: 0.083	inactive: 0.069	inactive: 0.072	inactive: 0.04	inactive: -0.036
